Binding data for two molecules are collected here from article PMC3390373.

Chains of the proteins cited; added tags and fusions are not shown. Lines headed by an entry give the natural chain unless they say otherwise; changes in a name come on top. A line that says so, or that is headed by a name, gives the form on record, which may keep a tag or linker. Residues count along the entry.
UniProt P32905: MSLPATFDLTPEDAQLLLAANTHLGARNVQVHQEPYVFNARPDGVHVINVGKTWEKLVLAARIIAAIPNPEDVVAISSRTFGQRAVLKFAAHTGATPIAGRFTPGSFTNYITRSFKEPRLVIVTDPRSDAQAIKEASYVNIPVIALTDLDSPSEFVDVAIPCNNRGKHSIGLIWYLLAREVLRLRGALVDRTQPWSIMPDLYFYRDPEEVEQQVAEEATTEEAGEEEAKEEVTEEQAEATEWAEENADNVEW
FLAG-tagged C-terminally truncated RPS0A (residues 1–197): residues 1-197 of P32905
UniProt P38431: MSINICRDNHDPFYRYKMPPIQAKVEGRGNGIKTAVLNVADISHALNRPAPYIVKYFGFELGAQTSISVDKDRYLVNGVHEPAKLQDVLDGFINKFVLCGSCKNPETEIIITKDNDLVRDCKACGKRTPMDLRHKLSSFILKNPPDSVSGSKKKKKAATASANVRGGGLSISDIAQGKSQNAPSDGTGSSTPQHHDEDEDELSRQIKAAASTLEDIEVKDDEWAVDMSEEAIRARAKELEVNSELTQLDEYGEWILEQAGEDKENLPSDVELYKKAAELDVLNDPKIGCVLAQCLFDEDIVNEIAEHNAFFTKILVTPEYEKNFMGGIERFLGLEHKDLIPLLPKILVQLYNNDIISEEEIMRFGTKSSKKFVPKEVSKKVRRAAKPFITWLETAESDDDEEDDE

The target of experiment [1] is FLAG-tagged full length RPS0A (S. cerevisiae) (UniProt P32905). In words: co-IP; WCE of H2880 wt cells overexpressing wt or C-terminally truncated RPS0A-FLAG; anti-FLAG M2 affinity matrix, 60 min, 4°C, buffer A200T (200 mM KCl, 20 mM Tris pH 8, 5 mM Mg acetate, 1 mM DTT, 0.2% Triton X-100); whole 40S subunits with their associated eIFs are recovered through the tagged RPS0A; Western blot, normalised to ASC1 (Figure 5B).

Experiment [2] has as its target FLAG-tagged C-terminally truncated RPS0A (residues 1–197) (S. cerevisiae) (UniProt P32905). The experiment is described as above.

No constants are given. Whether binding was seen depends on the method and setting. Binding seen in cells or lysates may run through a third protein. Some binding calls cover weakened binding; strength is not graded here.

Take eIF5 (from UniProt P38431 1-405): the binding entry in experiment [1] is recorded as “binds”.

B1: RACK1/ASC1/RPS33 (protein, UniProt P38011 1-319)
chain: MASNEVLVLRGTLEGHNGWVTSLATSAGQPNLLLSASRDKTLISWKLTGDDQKFGVPVRSFKGHSHIVQDCTLTADGAYALSASWDKTLRLWDVATGETYQRFVGHKSDVMSVDIDKKASMIISGSRDKTIKVWTIKGQCLATLLGHNDWVSQVRVVPNEKADDDSVTIISAGNDKMVKAWNLNQFQIEADFIGHNSNINTLTASPDGTLIASAGKDGEIMLWNLAAKKAMYTLSAQDEVFSLAFSPNRYWLAAATATGIKVFSLDPQYLVDDLRPEFAGYSKAAEPHAVSLAWSADGQTLFAGYTDNVIRVWQVMTAN
For the molecule B1, the binding entry in experiment [2] and in experiment [1] was “binds” in each case.
